Reference: patent publication US20200222474A1, “COMPOSITIONS AND METHODS FOR INCREASING PHYTOCHEMICAL BIOAVAILABLITY AND BIOACTIVITY” (North Carolina State University, priority 2017, published 2020)
Further values from the same series stand in other lists.

Tested on: L. acidophilus NCFM
Assay: RNA-seq transcriptional analysis of L. acidophilus NCFM growing on plant glycosides
Type: cell-based, Lactobacillus acidophilus
[1] = LBA1974 Pyruvate oxidase, COG EH
[2] = gene LBA0802 (Hypothetical protein)
[3] = gene LBA0863 (Hypothetical protein)
[4] = gene LBA0878 (Hypothetical protein)
[5] = gene LBA0888 (Hypothetical protein)
[6] = gene LBA0987 (Hypothetical protein)
[7] = gene LBA1019 (Mucus binding protein)
[8] = gene LBA1020 (Mucus binding protein)
[9] = gene LBA1227 (Hypothetical protein)
[10] = gene LBA1370 (Putative bacteriophage-related protein)
[11] = gene LBA1409 (Hypothetical protein LBA1409)
[12] = gene LBA1460 (Mucus binding protein precursor)
[13] = gene LBA1461 (Putative regulator)
[14] = gene LBA1539 (Hypothetical protein)
[15] = gene LBA1608 (Hypothetical protein)
[16] = gene LBA1612 (Fibrinogen-binding protein)
[17] = gene LBA1652 (Mucus binding protein precursor Mub)
[18] = gene LBA1655 (Hypothetical protein)
[19] = gene LBA1686 (Hypothetical protein)
[20] = gene LBA1693 (Hypothetical protein)
[21] = gene LBA1694 (Hypothetical protein)
[22] = gene LBA1709 (Mucus binding protein precursor Mub)
[23] = gene LBA1784 (Hypothetical protein)
[24] = gene LBA1786 (Hypothetical protein)
[25] = gene LBA1791 (Hypothetical protein)
[26] = gene LBA1792 (Hypothetical protein)
[27] = gene LBA1794 (Gassericin K7 B accessory protein)
[28] = gene LBA1797 (Hypothetical protein)
[29] = gene LBA1801 (Hypothetical protein)
[30] = gene LBA1802 (Hypothetical protein)
[31] = gene LBA1803 (Hypothetical protein.)
[32] = gene LBA1804 (Hypothetical protein)
[33] = gene LBA1805 (Hypothetical protein)
[34] = gene without printed locus tag, last line of Table 5 (Hypothetical protein)

SMILES: O=c1ccc2cc(O[C@@H]3O[C@H](CO)[C@@H](O)[C@H](O)[C@H]3O)c(O)cc2o1 [Esculin]
- Log2 differential normalized TPM ratio compared to glucose [1]: 3.6
- Log2 differential normalized TPM ratio compared to lactose [1]: 1.2
- Transcripts per million (rpm) [1]: 1092.7 rpm
- Log2 differential normalized TPM ratio compared to glucose [2]: −0.7
- Log2 differential normalized TPM ratio compared to lactose [2]: −1
- Transcripts per million (rpm) [2]: 21 rpm
- Log2 differential normalized TPM ratio compared to glucose [3]: 2.2
- Log2 differential normalized TPM ratio compared to lactose [3]: 1.4
- Transcripts per million (rpm) [3]: 240.9 rpm
- Log2 differential normalized TPM ratio compared to glucose [4]: 1.4
- Log2 differential normalized TPM ratio compared to lactose [4]: 0.2
- Transcripts per million (rpm) [4]: 10.1 rpm
- Log2 differential normalized TPM ratio compared to glucose [5]: 1.4
- Log2 differential normalized TPM ratio compared to lactose [5]: 0.4
- Transcripts per million (rpm) [5]: 84.8 rpm
- Log2 differential normalized TPM ratio compared to glucose [6]: 2.8
- Log2 differential normalized TPM ratio compared to lactose [6]: 2
- Transcripts per million (rpm) [6]: 323.4 rpm
- Log2 differential normalized TPM ratio compared to glucose [7]: 1.6
- Log2 differential normalized TPM ratio compared to lactose [7]: 0.6
- Transcripts per million (rpm) [7]: 40.2 rpm
- Log2 differential normalized TPM ratio compared to glucose [8]: 2.5
- Log2 differential normalized TPM ratio compared to lactose [8]: 2.4
- Transcripts per million (rpm) [8]: 864.5 rpm
- Log2 differential normalized TPM ratio compared to glucose [9]: 1.9
- Log2 differential normalized TPM ratio compared to lactose [9]: 1.4
- Transcripts per million (rpm) [9]: 281.3 rpm
- Log2 differential normalized TPM ratio compared to glucose [10]: 1.2
- Log2 differential normalized TPM ratio compared to lactose [10]: 0.7
- Transcripts per million (rpm) [10]: 91.2 rpm
- Log2 differential normalized TPM ratio compared to glucose [11]: 1.8
- Log2 differential normalized TPM ratio compared to lactose [11]: 1.1
- Transcripts per million (rpm) [11]: 16 rpm
- Log2 differential normalized TPM ratio compared to glucose [12]: −0.9
- Log2 differential normalized TPM ratio compared to lactose [12]: −5.1
- Transcripts per million (rpm) [12]: 5.6 rpm
- Log2 differential normalized TPM ratio compared to glucose [13]: −1
- Log2 differential normalized TPM ratio compared to lactose [13]: −5.9
- Transcripts per million (rpm) [13]: 3 rpm
- Log2 differential normalized TPM ratio compared to glucose [14]: 1.3
- Log2 differential normalized TPM ratio compared to lactose [14]: −1.5
- Transcripts per million (rpm) [14]: 59.4 rpm
- Log2 differential normalized TPM ratio compared to glucose [15]: 1.5
- Log2 differential normalized TPM ratio compared to lactose [15]: 0.8
- Transcripts per million (rpm) [15]: 63.4 rpm
- Log2 differential normalized TPM ratio compared to glucose (gene LBA1611 (Surface protein)): 2.8
- Log2 differential normalized TPM ratio compared to lactose (gene LBA1611 (Surface protein)): 3.3
- Transcripts per million (rpm) (gene LBA1611 (Surface protein)): 1213 rpm
- Log2 differential normalized TPM ratio compared to glucose [16]: 2.8
- Log2 differential normalized TPM ratio compared to lactose [16]: 2.7
- Transcripts per million (rpm) [16]: 965.4 rpm
- Log2 differential normalized TPM ratio compared to glucose (gene LBA1633 (Surface protein)): 0
- Log2 differential normalized TPM ratio compared to lactose (gene LBA1633 (Surface protein)): −1.2
- Transcripts per million (rpm) (gene LBA1633 (Surface protein)): 7.8 rpm
- Log2 differential normalized TPM ratio compared to glucose [17]: 1.5
- Log2 differential normalized TPM ratio compared to lactose [17]: 0.9
- Transcripts per million (rpm) [17]: 34.6 rpm
- Log2 differential normalized TPM ratio compared to glucose [18]: 0.3
- Log2 differential normalized TPM ratio compared to lactose [18]: 0
- Transcripts per million (rpm) [18]: 5.3 rpm
- Log2 differential normalized TPM ratio compared to glucose [19]: −0.2
- Log2 differential normalized TPM ratio compared to lactose [19]: 0.1
- Transcripts per million (rpm) [19]: 167 rpm
- Log2 differential normalized TPM ratio compared to glucose [20]: 2.2
- Log2 differential normalized TPM ratio compared to lactose [20]: 1.2
- Transcripts per million (rpm) [20]: 523 rpm
- Log2 differential normalized TPM ratio compared to glucose [21]: 3
- Log2 differential normalized TPM ratio compared to lactose [21]: 2
- Transcripts per million (rpm) [21]: 697.9 rpm
- Log2 differential normalized TPM ratio compared to glucose [22]: 3.6
- Log2 differential normalized TPM ratio compared to lactose [22]: 3.2
- Transcripts per million (rpm) [22]: 33.7 rpm
- Log2 differential normalized TPM ratio compared to glucose [23]: 1.7
- Log2 differential normalized TPM ratio compared to lactose [23]: −0.3
- Transcripts per million (rpm) [23]: 143.4 rpm
- Log2 differential normalized TPM ratio compared to glucose [24]: 1.8
- Log2 differential normalized TPM ratio compared to lactose [24]: −0.4
- Transcripts per million (rpm) [24]: 86.6 rpm
- Log2 differential normalized TPM ratio compared to glucose [25]: 1.1
- Log2 differential normalized TPM ratio compared to lactose [25]: −1.1
- Transcripts per million (rpm) [25]: 39.7 rpm
- Log2 differential normalized TPM ratio compared to glucose [26]: 0.8
- Log2 differential normalized TPM ratio compared to lactose [26]: −1.6
- Transcripts per million (rpm) [26]: 26.1 rpm
- Log2 differential normalized TPM ratio compared to glucose [27]: 1.8
- Log2 differential normalized TPM ratio compared to lactose [27]: −0.5
- Transcripts per million (rpm) [27]: 53.6 rpm
- Log2 differential normalized TPM ratio compared to glucose [28]: 2.6
- Log2 differential normalized TPM ratio compared to lactose [28]: −2.3
- Transcripts per million (rpm) [28]: 816 rpm
- Log2 differential normalized TPM ratio compared to glucose [29]: 0.9
- Log2 differential normalized TPM ratio compared to lactose [29]: −1.5
- Transcripts per million (rpm) [29]: 8.5 rpm
- Log2 differential normalized TPM ratio compared to glucose [30]: 1
- Log2 differential normalized TPM ratio compared to lactose [30]: −1.6
- Transcripts per million (rpm) [30]: 15.5 rpm
- Log2 differential normalized TPM ratio compared to glucose [31]: 1
- Log2 differential normalized TPM ratio compared to lactose [31]: −2.1
- Transcripts per million (rpm) [31]: 26.6 rpm
- Log2 differential normalized TPM ratio compared to glucose [32]: 1.6
- Log2 differential normalized TPM ratio compared to lactose [32]: −2.2
- Transcripts per million (rpm) [32]: 57.2 rpm
- Log2 differential normalized TPM ratio compared to glucose [33]: 1.7
- Log2 differential normalized TPM ratio compared to lactose [33]: −2.2
- Transcripts per million (rpm) [33]: 101.7 rpm
- Log2 differential normalized TPM ratio compared to glucose [34]: 2.1
- Log2 differential normalized TPM ratio compared to lactose [34]: 1.9
- Transcripts per million (rpm) [34]: 85.5 rpm
